Measured values taken from PubChem BioAssay AID2685 (National Center for Advancing Translational Sciences (NCATS), 2010).
The other results are listed elsewhere or left out. These are further read-outs of the screen, such as a control signal, another cell line or another target. No call is given for them. The list favours compounds with an active or inconclusive main result. The note in brackets gives the kind of curve behind each potency; many fits are weak.

Experiment: qHTS Assay for Lipid Storage Modulators in Drosophila S3 Cells;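 for cell number change: cells counted by Cell Tracker Red CMTPX staining in the red channel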
Conditions: BODIPY lipid droplet fluorescence, 18-24 h; for cell number change: measured here: cell count max response, cells fed with added oleic acid
Method in brief: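 Drosophila S3 cells got compounds at several concentrations plus oleic acid (400 uM solution). Laser-scanning cytometry with 488 nm excitation read lipid droplets at 500-530 nm and cells at 575-640 nm. Percent activity was relative to 20 uM Triacsin C.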

[1] = measured here: cell number channel AC50, cells fed with added oleic acid
[2] = measured here: lipid fluorescence (Fed channel) AC50, cells fed with added oleic acid

| SMILES | AC50 [1] | AC50 [2] | cell number change |
| --- | --- | --- | --- |
| O=C1c2ccccc2C(=O)N1Cc1cnc(N2CCN(c3ccccc3)CC2)s1 | 0.146 µM [falling, full curve, poor fit] | 0.146 µM [falling, full curve, poor fit] |  |
| Cc1ccc(/C=N/N=C/c2ccc(C)s2)s1 |  | 13 µM [rising, partial curve] | 25.1% |
| CCOC(=O)C1(Cc2ccccc2)CCN(Cc2cccc3nccnc23)CC1 |  | 1.03 µM [rising, full curve, poor fit] | 27.2% |
| O=C(NCc1cc([N+](=O)[O-])ccc1O)c1cc(-c2ccncc2)nc2ccccc12 |  | 0.206 µM [rising, full curve, poor fit] | 8.65% |
| COc1cc(NC(=O)COc2cccc3c2OC(C)(C)C3)cc(OC)c1OC |  | 1.84 µM [falling, partial curve, poor fit] | -20.2% |
| Cc1ccc(N(Cc2cc3ccccc3[nH]c2=O)C(=O)c2cccs2)cc1 | 29.1 µM [rising, single point] |  | 100% |
| O=C(Nc1ccc(N2CCOCC2)cc1)c1ccc(Cl)cc1N1CCCC1=O |  | 29.1 µM [rising, single point] | -4.23% |
| COc1ccc(-c2nc3ncccn3c2Nc2ccccc2)cc1 |  |  | 3.26% |
| CC(=O)Oc1ccc2c(=O)c(Oc3ccccc3[N+](=O)[O-])coc2c1 |  | 0.13 µM [falling, full curve, poor fit] | -27.7% |
| COc1ccc(C(=O)N2CCCc3ccccc32)cc1Br |  | 20.6 µM [rising, single point] | -22.8% |
| COc1ccc2oc(=O)c(C(=O)NCc3ccccc3)cc2c1 |  | 0.411 µM [rising, partial curve, poor fit] | 8.55% |
| Cc1ccc(C2C3C(=O)N(c4ccc(C)cc4)C(=O)C3N3CCCN23)cc1 (configuration not stated) |  | 0.0103 µM [rising, full curve, poor fit] |  |
| CC(=O)Nc1ccccc1C(=O)N1CC2(C)CC1CC(C)(C)C2 (configuration not stated) |  |  | -14.7% |
| O=C(NCc1ccccc1)Nc1cccn(Cc2ccc(Cl)cc2)c1=O | 3.66 µM [rising, full curve, poor fit] |  | 26.3% |
| CCOc1ccc2cc(C#N)c(SCC(=O)OC)nc2c1 |  |  | -12.6% |
| Cc1ccc(Nc2nnc(SCC(=O)NC(Cc3c[nH]c4ccccc34)C(=O)O)s2)cc1 (configuration not stated) |  | 7.31 µM [rising, single point] | 13.1% |
| CCn1c(=O)c(C(=O)NNS(=O)(=O)c2ccc(NC(=O)OC)cc2)c(O)c2ccccc21 |  |  | 11.1% |
| CCC(C)[C@H](NC(=O)N1CC(=O)Nc2ccccc21)C(=O)NC(C)CCc1ccccc1 (some centres not stated) | 1.3 µM [falling, partial curve] |  |  |
| CCCN1CCC(N2CCN(c3cccc(C(F)(F)F)c3)CC2)CC1 |  | 18.4 µM [falling, single point] | -14.4% |
| Cc1[nH]n(-c2ccccc2)c(=O)c1/C=N/N1C(=O)c2ccc3c4c(ccc(c24)C1=O)CC3 |  | 13 µM [falling, single point] | 1.66% |

Copied from above, 13 compounds:

| SMILES | AC50 [1] | AC50 [2] | cell number change |
| --- | --- | --- | --- |
| Cc1ccc(N(Cc2cc3ccccc3[nH]c2=O)C(=O)c2cccs2)cc1 | 29.1 µM [rising, single point] |  | 100% |
| O=C(Nc1ccc(N2CCOCC2)cc1)c1ccc(Cl)cc1N1CCCC1=O |  | 29.1 µM [rising, single point] | -4.23% |
| COc1ccc(-c2nc3ncccn3c2Nc2ccccc2)cc1 |  |  | 3.26% |
| CC(=O)Oc1ccc2c(=O)c(Oc3ccccc3[N+](=O)[O-])coc2c1 |  | 0.13 µM [falling, full curve, poor fit] | -27.7% |
| COc1ccc(C(=O)N2CCCc3ccccc32)cc1Br |  | 20.6 µM [rising, single point] | -22.8% |
| COc1ccc2oc(=O)c(C(=O)NCc3ccccc3)cc2c1 |  | 0.411 µM [rising, partial curve, poor fit] | 8.55% |
| Cc1ccc(C2C3C(=O)N(c4ccc(C)cc4)C(=O)C3N3CCCN23)cc1 (configuration not stated) |  | 0.0103 µM [rising, full curve, poor fit] |  |
| CC(=O)Nc1ccccc1C(=O)N1CC2(C)CC1CC(C)(C)C2 (configuration not stated) |  |  | -14.7% |
| O=C(NCc1ccccc1)Nc1cccn(Cc2ccc(Cl)cc2)c1=O | 3.66 µM [rising, full curve, poor fit] |  | 26.3% |
| CCOc1ccc2cc(C#N)c(SCC(=O)OC)nc2c1 |  |  | -12.6% |
| Cc1ccc(Nc2nnc(SCC(=O)NC(Cc3c[nH]c4ccccc34)C(=O)O)s2)cc1 (configuration not stated) |  | 7.31 µM [rising, single point] | 13.1% |
| CCn1c(=O)c(C(=O)NNS(=O)(=O)c2ccc(NC(=O)OC)cc2)c(O)c2ccccc21 |  |  | 11.1% |
| CCC(C)[C@H](NC(=O)N1CC(=O)Nc2ccccc21)C(=O)NC(C)CCc1ccccc1 (some centres not stated) | 1.3 µM [falling, partial curve] |  |  |

Arranged by molar mass (smallest number first): part of the list above

| SMILES | AC50 [1] | AC50 [2] | cell number change |
| --- | --- | --- | --- |
| COc1ccc(-c2nc3ncccn3c2Nc2ccccc2)cc1 |  |  | 3.26% |
| Cc1ccc(C2C3C(=O)N(c4ccc(C)cc4)C(=O)C3N3CCCN23)cc1 (configuration not stated) |  | 0.0103 µM [rising, full curve, poor fit] |  |
| O=C(NCc1ccccc1)Nc1cccn(Cc2ccc(Cl)cc2)c1=O | 3.66 µM [rising, full curve, poor fit] |  | 26.3% |

The list continues:

| SMILES | AC50 [1] | AC50 [2] | cell number change |
| --- | --- | --- | --- |
| O=C(/C=C/c1nc2ccccc2s1)N1CCCCCC1 |  |  | 9.17% |
| COC(=O)c1cccc(Oc2cccc(C(F)(F)F)c2)n1 | 3.66 µM [falling, single point] |  |  |
| CC12CC3(C)CC(C)(C1)CC(C(=O)NCCc1ccc(S(N)(=O)=O)cc1)(C2)C3 | 3.66 µM [rising, full curve] |  | 50% |
| COC1=CC(=O)OC12CCCCC2 | 1.46 µM [falling, full curve] | 16.4 µM [falling, partial curve] | -45.9% |
| O=C1c2ccccc2NC(c2ccc(-c3cccc(F)c3)o2)N1O (configuration not stated) | 29.1 µM [falling, single point] |  | -38% |
| CC(=O)OC(C(=O)NCc1ccco1)c1ccncc1 (configuration not stated) |  |  | -9.99% |
| CN(C)c1ncc(S(=O)(=O)c2ccccc2)c(N)n1 | 29.1 µM [rising, partial curve] | 23.1 µM [rising, partial curve] | 140% |
| Cc1cc(C(=O)NNCc2ccccc2)no1 | 6.51 µM [rising, single point] | 6.51 µM [rising, single point] |  |
| COc1cc(/C=C2\SC(=S)N(NC(=O)c3ccc(O)c(OC)c3)C2=O)ccc1O | 18.4 µM [falling, single point] |  | -85.2% |
| CC1CC(O)C(C)CN1 (configuration not stated) | 0.103 µM [falling, full curve] | 0.116 µM [falling, full curve] | -55.5% |
| O=C(CSc1nc(C2CC2)nc2c1cnn2-c1ccccc1)Nc1c[nH]c(=O)[nH]c1=O | 29.1 µM [falling, single point] | 18.4 µM [falling, single point] | -50.2% |
| COc1ccc(-c2cc(N)n(S(=O)(=O)c3c(F)c(F)c(F)c(F)c3F)n2)cc1OC | 16.4 µM [falling, partial curve, poor fit] | 29.1 µM [falling, single point] | -44% |
| CN1CCN(C(=O)c2cc3nc(-c4ccc(F)cc4)cc(C(F)(F)F)n3n2)CC1 |  |  | 11.9% |
| CCC(Cc1ccccc1)NS(=O)(=O)c1c(C)nc2sccn2c1=O (configuration not stated) |  |  | 13.8% |
| Cc1cccc(Nc2cnn(C34CC5CC(CC(CC(=O)O)(C5)C3)C4)c(=O)c2Cl)c1 | 0.651 µM [falling, full curve, poor fit] | 23.1 µM [falling, partial curve] | -30% |
| COc1ccccc1Nc1nc(N)nc(CSC(=S)N2CCCCC2)n1 |  | 0.116 µM [rising, full curve] | 17.8% |
| COC(=O)c1cc(C(=O)OC)cc(N2C(=O)CC(NNC(=O)c3ccc(C)cc3)C2=O)c1 (configuration not stated) | 29.1 µM [rising, single point] | 0.164 µM [falling, full curve, poor fit] | 47.9% |
| Cc1ccccc1NC(=O)C(=O)NC(C)CCc1ccccc1 (configuration not stated) |  | 16.4 µM [falling, partial curve] |  |
| CCOC(=O)CCCNC(=O)CN1C(=O)NC(c2ccccc2)(c2ccccc2)C1=O |  | 0.58 µM [rising, single point] | 11.7% |
| COc1ccc(S(=O)(=O)Nc2ccc(OCC(=O)O)cc2)c2ccccc12 |  | 29.1 µM [falling, single point] | 6.85% |

| SMILES | AC50 [1] | AC50 [2] | cell number change |
| --- | --- | --- | --- |
| COc1ccc(C2c3sc(=O)[nH]c3SC3C4CCC(C4)C23)cc1 (configuration not stated) | 5.8 µM [rising, full curve] | 7.31 µM [rising, partial curve] | 71.1% |
| COCCn1c(-c2ccccc2)nc2c(c(=O)c3ccccc3n2C)c1=O |  | 0.058 µM [rising, full curve, poor fit] | 16.8% |
| O=C(O)C1CSC(c2coc3ccccc3c2=O)N1 (configuration not stated) | 29.1 µM [rising, single point] | 29.1 µM [rising, single point] | 58.3% |
| O=C(CN(Cc1ccccc1C(F)(F)F)C(=O)CNC(=O)c1ccco1)NC1CCCC1 |  | 0.13 µM [falling, full curve, poor fit] | 15.8% |
| CC(O)c1nc2ccccc2n1CC(=O)Nc1ccc2c(c1)OCCO2 (configuration not stated) | 1.64 µM [rising, partial curve, poor fit] |  | 10% |
| CCOc1ccc(NC(=O)CCC(=O)Oc2ccc(C)cc2)cc1 |  |  | 28.1% |
| COc1cc2c(cc1OC)CN(CC(=O)Nc1ccccc1C#N)CC2 | 0.461 µM [rising, single point] | 29.1 µM [rising, single point] | 38.7% |
| O=C(OC(C(=O)Nc1ccc(Cl)cc1C(F)(F)F)c1ccccc1)c1c(Cl)cccc1Cl (configuration not stated) |  | 6.51 µM [rising, single point] | -24% |
| Nc1ccc2oc(CCc3ccccc3)nc2c1 |  | 29.1 µM [falling, single point] | -3.57% |
| NC(=O)c1ccc(Oc2ncc(C(F)(F)F)cc2Cl)cc1 |  | 6.51 µM [falling, single point] | -17.2% |
| COc1ccc(C2SCCN2C(=S)Nc2cccc(C(F)(F)F)c2)cc1 (configuration not stated) |  | 29.1 µM [falling, single point] | -17.9% |
| CCOC(=O)c1cccc(C2=CC(=O)C[C@H](c3ccc(Cl)cc3)C2)c1 | 2.59 µM [falling, full curve, poor fit] | 2.59 µM [falling, full curve] | -28.7% |
| O=C1CCc2cc(S(=O)(=O)N3CCCC3C(=O)N3CCN(c4ccccc4F)CC3)ccc2N1 (configuration not stated) |  | 0.651 µM [falling, single point] | 6.76% |
| CCOCCCn1c(=N)c(C(=O)NCc2ccc3c(c2)OCO3)cc2c(=O)n3ccccc3nc21 |  | 4.11 µM [rising, full curve, poor fit] | -11.6% |
| c1ccc(C2[C@H]3CN(CC4CCCCC4)[C@H](c4ccccc4)C34CC2(c2cccnc2)C4)cc1 (some centres not stated) |  | 1.16 µM [rising, full curve] | 18.4% |
| Oc1ccc(Cl)cc1CNCC1CCCCC1 | 20.6 µM [falling, single point] | 29.1 µM [rising, single point] | -35.2% |
| O=C(Nc1ccc(CN2CCCCC2)cc1)Nc1ccc(Br)cc1Cl |  |  | 6.78% |
| Cc1c(N(C)C)nc2ccccc2c1N | 4.11 µM [falling, full curve, poor fit] | 25.9 µM [falling, single point] | -23.5% |
| COc1ccc(-c2[nH]ncc2/C=C(\C#N)C(=O)NC2CC2)cc1 |  | 0.259 µM [rising, full curve, poor fit] | 8.19% |
